Measured values published in US9389182B2 (University of Southern California, priority 2011, dated 2016).

Assay: Particle size of fluorescent degradation products by dialysis of partially digested Hb-AMC
Conditions: for reduction in fluorescent signal on dialysis: partially trypsin-digested Hb-AMC

## Hb-AMC: AMC-labeled hemoglobin, made by reductive labeling with AMC and sodium cyanoborohydride
  share of fluorescent products between 500 Da and 5 kDa: 15%
  share of fluorescent products smaller than 500 Da: 80%
  share of signal from peptides larger than 5 kDa: about 5%
1 kDa filter
  reduction in fluorescent signal on dialysis: ≈ 90%
5 kDa filter
  reduction in fluorescent signal on dialysis: ≈ 95%
500 Da filter
  reduction in fluorescent signal on dialysis: ≈ 80%
